Results are given in words; binding and its absence hold for the method and conditions named. In cells and extracts the contact can be indirect. Some binding calls cover weakened binding; strength is not graded here.
Legend:
GFP-Smad3 (human) = assay: co-immunoprecipitation with anti-GFP antibody, X293T lysates, anti-HA blot
GFP-Smad7 (human) = assay: as above

By UniProt entry, the sequences of proteins in these tests, tags left out. Where a name states a change or a piece, a line headed by the entry shows the natural chain unless it says otherwise. Chains listed by the source or under a name are the forms on record and can include a tag or linker.
HA-FLAG-GREB1 (Q3UHK3, form named): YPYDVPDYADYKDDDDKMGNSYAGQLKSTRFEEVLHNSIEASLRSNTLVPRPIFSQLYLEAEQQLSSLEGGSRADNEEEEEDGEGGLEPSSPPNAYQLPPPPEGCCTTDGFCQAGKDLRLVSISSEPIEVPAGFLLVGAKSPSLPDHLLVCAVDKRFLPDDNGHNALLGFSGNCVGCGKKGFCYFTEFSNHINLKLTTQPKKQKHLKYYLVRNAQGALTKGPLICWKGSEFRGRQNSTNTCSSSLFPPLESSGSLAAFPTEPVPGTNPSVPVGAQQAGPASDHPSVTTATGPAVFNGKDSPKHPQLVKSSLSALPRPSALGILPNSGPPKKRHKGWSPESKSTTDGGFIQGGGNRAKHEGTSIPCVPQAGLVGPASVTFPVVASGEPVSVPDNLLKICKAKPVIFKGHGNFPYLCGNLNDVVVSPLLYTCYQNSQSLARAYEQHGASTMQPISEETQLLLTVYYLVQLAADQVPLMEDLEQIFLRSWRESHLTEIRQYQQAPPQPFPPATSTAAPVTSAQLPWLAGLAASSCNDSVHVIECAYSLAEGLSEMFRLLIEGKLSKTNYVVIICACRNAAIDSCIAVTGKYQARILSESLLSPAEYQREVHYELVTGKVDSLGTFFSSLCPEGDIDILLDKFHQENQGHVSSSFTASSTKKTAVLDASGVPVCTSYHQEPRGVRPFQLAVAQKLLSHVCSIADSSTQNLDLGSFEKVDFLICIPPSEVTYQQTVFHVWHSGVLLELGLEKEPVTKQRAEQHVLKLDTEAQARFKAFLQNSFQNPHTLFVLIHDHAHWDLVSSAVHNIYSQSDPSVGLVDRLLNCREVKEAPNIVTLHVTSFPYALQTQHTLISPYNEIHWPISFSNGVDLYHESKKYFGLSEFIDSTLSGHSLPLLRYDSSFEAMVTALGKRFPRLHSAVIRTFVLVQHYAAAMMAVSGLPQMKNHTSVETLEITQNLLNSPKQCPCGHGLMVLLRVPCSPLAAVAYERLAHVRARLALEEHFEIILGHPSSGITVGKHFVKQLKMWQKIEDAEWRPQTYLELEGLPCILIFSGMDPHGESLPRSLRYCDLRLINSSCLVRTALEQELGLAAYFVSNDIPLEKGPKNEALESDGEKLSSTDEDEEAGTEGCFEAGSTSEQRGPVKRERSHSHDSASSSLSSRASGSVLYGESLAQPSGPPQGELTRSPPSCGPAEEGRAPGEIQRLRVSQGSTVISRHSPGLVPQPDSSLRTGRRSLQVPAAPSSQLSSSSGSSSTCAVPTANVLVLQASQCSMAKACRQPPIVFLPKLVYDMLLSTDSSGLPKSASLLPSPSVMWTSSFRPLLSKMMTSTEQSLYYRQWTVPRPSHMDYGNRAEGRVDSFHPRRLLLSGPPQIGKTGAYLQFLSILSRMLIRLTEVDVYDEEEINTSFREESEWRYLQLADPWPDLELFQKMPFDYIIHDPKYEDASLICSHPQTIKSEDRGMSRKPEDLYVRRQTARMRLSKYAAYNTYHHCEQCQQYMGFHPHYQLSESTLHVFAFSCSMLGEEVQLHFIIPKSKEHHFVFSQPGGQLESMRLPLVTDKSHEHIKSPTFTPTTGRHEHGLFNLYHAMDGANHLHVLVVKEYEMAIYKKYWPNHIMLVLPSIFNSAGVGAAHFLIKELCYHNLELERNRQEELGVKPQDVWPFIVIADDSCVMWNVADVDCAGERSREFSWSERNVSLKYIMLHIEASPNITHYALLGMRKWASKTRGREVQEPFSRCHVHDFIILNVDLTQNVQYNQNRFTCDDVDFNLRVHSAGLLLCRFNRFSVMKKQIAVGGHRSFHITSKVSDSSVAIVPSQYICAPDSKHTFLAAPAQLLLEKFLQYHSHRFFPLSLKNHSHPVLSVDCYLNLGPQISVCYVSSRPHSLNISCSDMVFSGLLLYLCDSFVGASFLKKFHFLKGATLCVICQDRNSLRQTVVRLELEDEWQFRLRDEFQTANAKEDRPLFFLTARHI

Substance: HA-FLAG-GREB1 (from UniProt Q3UHK3 1-1954)
- binding (GFP-Smad3 (human)): binds
- binding (GFP-Smad7 (human)): binds
